Measured data: PubChem BioAssay AID493246 (Drosophila RNAi Screening Center, 2011)
Test: 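Identify essential fly genes by loss of cell viability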 (primary screen). Cells: Drosophila Kc and S2R+ cells. Knock-down reagent: long dsRNA against Drosophila genes. Measurement: 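Cell number per well after knock-down, printed as raw plate values; calls were based on per-plate z-scores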. Direction: Kc cell number and S2R+ cell number: higher = more cells remaining. Active means: 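Counted as a hit if cell number falls by a z-score of at least 3 within its plate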.
The screen tested about 21,000 reagents; this is an unselected part of those that have a named target and a result. In the full data, 429 (2%) got an active call. 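Values are raw and not normalised between plates; calls rest on per-plate z-scores that were not deposited.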 Entries without a mark were called inactive. Reagents against one gene are numbered here. A plus sign joins genes that one reagent is predicted to hit. The record does not give: the amount of reagent, the time to read-out.

no.	Gene	reagent	Kc cell number, rep 1	Kc cell number, rep 2	S2R+ cell number, rep 1	S2R+ cell number, rep 2
1	Lamtor4	1	1.40e6	1.27e6	1.01e6	1.24e6
2	Send2	1	1.60e6	1.68e6	1.32e6	1.47e6
3	CG9517 (retired record)	1	1.48e6	1.49e6	1.07e6	1.14e6
4	CG9517 (retired record)	2	1.42e6	1.43e6	1.08e6	1.16e6
5	apn	1	1.51e6	1.56e6	1.21e6	1.29e6
6	Vps20	1	1.57e6	1.61e6	1.30e6	1.41e6
7	CG1764	1	6.18e5		8.79e5	
8	CG17816	1	1.38e6	1.37e6	1.05e6	1.21e6
9	CG9682	1	5.52e5		8.66e5	

Sorted by “S2R+ cell number, rep 1” (low to high): some entries from above.
Gene	reagent	Kc cell number, rep 1	Kc cell number, rep 2	S2R+ cell number, rep 1	S2R+ cell number, rep 2
CG1764	1	6.18e5		8.79e5	
apn	1	1.51e6	1.56e6	1.21e6	1.29e6
Vps20	1	1.57e6	1.61e6	1.30e6	1.41e6

Additional entries:
no.	Gene	reagent	Kc cell number, rep 1	Kc cell number, rep 2	S2R+ cell number, rep 1	S2R+ cell number, rep 2
10	CG13607	1	1.64e6	1.85e6	1.05e6	1.15e6
11	CG8229 + CG33199	1	1.45e6	1.45e6	9.22e5	9.78e5
12	msps	1	1.56e6	1.62e6	1.15e6	1.20e6
13	CG14969	1	1.45e6	1.61e6	1.17e6	1.00e6
14	Rint1	1	1.49e6	1.47e6	1.12e6	1.14e6
15	CR18275	1	1.58e6	1.59e6	1.03e6	1.14e6
16	CG5715	1	1.38e6	1.46e6	9.86e5	1.06e6
17	Mcm3	1	6.00e5		8.81e5	
18	CG5762	1	1.46e6	1.51e6	1.15e6	1.09e6
19	ACOX1	1	1.33e6	1.42e6	1.14e6	1.16e6
20	CG4267	1	1.42e6	1.51e6	9.88e5	1.11e6
21	CG15251 (retired record)	1	1.64e6	1.53e6	1.08e6	1.19e6
22	tamo	1	1.45e6	1.50e6	1.15e6	1.25e6
23	BicD	1	1.22e6	1.47e6	1.07e6	1.14e6
24	Pex7	1	1.39e6	1.70e6	1.09e6	1.22e6
